No constants are given. Whether binding was seen depends on the method and setting. In cells and extracts the contact can be indirect. Some binding calls cover weakened binding; strength is not graded here. For part of these data: Where a sequence is shown, tags or fusion partners need not be part of it.
T1: IFIT1^WT-Myc (UniProt P09914)
T1 sequence: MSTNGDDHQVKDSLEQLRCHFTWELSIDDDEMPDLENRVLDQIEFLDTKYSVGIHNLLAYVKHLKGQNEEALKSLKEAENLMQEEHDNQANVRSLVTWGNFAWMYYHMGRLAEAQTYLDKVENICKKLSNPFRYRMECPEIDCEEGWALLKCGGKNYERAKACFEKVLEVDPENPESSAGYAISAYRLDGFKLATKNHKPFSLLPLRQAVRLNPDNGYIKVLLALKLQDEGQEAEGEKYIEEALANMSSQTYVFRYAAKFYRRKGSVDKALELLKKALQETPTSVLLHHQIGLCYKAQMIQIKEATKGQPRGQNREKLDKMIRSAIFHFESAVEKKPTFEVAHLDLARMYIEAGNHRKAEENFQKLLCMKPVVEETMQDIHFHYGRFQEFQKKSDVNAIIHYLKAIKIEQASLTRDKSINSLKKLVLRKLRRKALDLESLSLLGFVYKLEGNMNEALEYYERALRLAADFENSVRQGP

T2: IFIT3^WT (UniProt O14879)
T2 sequence: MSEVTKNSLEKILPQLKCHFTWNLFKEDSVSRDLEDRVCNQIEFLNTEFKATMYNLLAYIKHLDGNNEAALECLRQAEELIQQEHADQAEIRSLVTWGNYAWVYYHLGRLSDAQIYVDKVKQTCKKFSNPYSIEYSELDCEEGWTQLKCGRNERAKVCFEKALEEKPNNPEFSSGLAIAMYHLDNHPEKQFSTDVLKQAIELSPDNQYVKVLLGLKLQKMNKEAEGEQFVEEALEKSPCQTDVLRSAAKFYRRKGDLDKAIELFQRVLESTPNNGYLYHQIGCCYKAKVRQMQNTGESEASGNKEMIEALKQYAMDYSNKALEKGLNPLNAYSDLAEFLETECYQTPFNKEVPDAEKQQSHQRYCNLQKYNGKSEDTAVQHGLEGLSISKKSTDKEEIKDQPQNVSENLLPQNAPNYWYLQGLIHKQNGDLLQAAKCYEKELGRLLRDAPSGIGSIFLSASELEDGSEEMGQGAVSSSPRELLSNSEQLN

B1: OAS1^WT-HA (protein, UniProt P00973 1-400)
chain: MMDLRNTPAKSLDKFIEDYLLPDTCFRMQINHAIDIICGFLKERCFRGSSYPVCVSKVVKGGSSGKGTTLRGRSDADLVVFLSPLTTFQDQLNRRGEFIQEIRRQLEACQRERAFSVKFEVQAPRWGNPRALSFVLSSLQLGEGVEFDVLPAFDALGQLTGGYKPNPQIYVKLIEECTDLQKEGEFSTCFTELQRDFLKQRPTKLKSLIRLVKHWYQNCKKKLGKLPPQYALELLTVYAWERGSMKTHFNTAQGFRTVLELVINYQQLCIYWTKYYDFKNPIIEKYLRRQLTKPRPVILDPADPTGNLGGGDPKGWRQLAQEAEAWLNYPCFKNWDGSPVSSWILLAESNSADDETDDPRRYQKYGYIGTHEYPHFSHRPSTLQAASTPQAEEDWTCTIL
B2: OAS3^WT (protein, UniProt Q9Y6K5 1-1087)
chain: MDLYSTPAAALDRFVARRLQPRKEFVEKARRALGALAAALRERGGRLGAAAPRVLKTVKGGSSGRGTALKGGCDSELVIFLDCFKSYVDQRARRAEILSEMRASLESWWQNPVPGLRLTFPEQSVPGALQFRLTSVDLEDWMDVSLVPAFNVLGQAGSGVKPKPQVYSTLLNSGCQGGEHAACFTELRRNFVNIRPAKLKNLILLVKHWYHQVCLQGLWKETLPPVYALELLTIFAWEQGCKKDAFSLAEGLRTVLGLIQQHQHLCVFWTVNYGFEDPAVGQFLQRQLKRPRPVILDPADPTWDLGNGAAWHWDLLAQEAASCYDHPCFLRGMGDPVQSWKGPGLPRAGCSGLGHPIQLDPNQKTPENSKSLNAVYPRAGSKPPSCPAPGPTGAASIVPSVPGMALDLSQIPTKELDRFIQDHLKPSPQFQEQVKKAIDIILRCLHENCVHKASRVSKGGSFGRGTDLRDGCDVELIIFLNCFTDYKDQGPRRAEILDEMRAQLESWWQDQVPSLSLQFPEQNVPEALQFQLVSTALKSWTDVSLLPAFDAVGQLSSGTKPNPQVYSRLLTSGCQEGEHKACFAELRRNFMNIRPVKLKNLILLVKHWYRQVAAQNKGKGPAPASLPPAYALELLTIFAWEQGCRQDCFNMAQGFRTVLGLVQQHQQLCVYWTVNYSTEDPAMRMHLLGQLRKPRPLVLDPADPTWNVGHGSWELLAQEAAALGMQACFLSRDGTSVQPWDVMPALLYQTPAGDLDKFISEFLQPNRQFLAQVNKAVDTICSFLKENCFRNSPIKVIKVVKGGSSAKGTALRGRSDADLVVFLSCFSQFTEQGNKRAEIISEIRAQLEACQQERQFEVKFEVSKWENPRVLSFSLTSQTMLDQSVDFDVLPAFDALGQLVSGSRPSSQVYVDLIHSYSNAGEYSTCFTELQRDFIISRPTKLKSLIRLVKHWYQQCTKISKGRGSLPPQHGLELLTVYAWEQGGKDSQFNMAEGFRTVLELVTQYRQLCIYWTINYNAKDKTVGDFLKQQLQKPRPIILDPADPTGNLGHNARWDLLAKEAAACTSALCCMGRNGIPIQPWPVKAAV

Legend:
[1] = target: T1, IFIT1^WT-Myc; assay: co-IP; anti-Myc antibodies on lysates of H1975 cells overexpressing HA-tagged OAS (WT or Del-NT) and Myc-tagged IFIT (WT or Del-TPR12); protein A/G beads overnight at 4 °C; immunoblot (OAS3/IFIT3 and OAS2/IFIT5 in Fig. S8C, details not shown)
[2] = target: T1, IFIT1^WT-Myc; assay: co-IP; verification in A549 and H1299 cells (Fig. S9, E and F); details not shown
[3] = target: T2, IFIT3^WT; assay: co-IP; anti-Myc antibodies on lysates of H1975 cells overexpressing HA-tagged OAS (WT or Del-NT) and Myc-tagged IFIT (WT or Del-TPR12); protein A/G beads overnight at 4 °C; immunoblot (OAS3/IFIT3 and OAS2/IFIT5 in Fig. S8C, details not shown)

Binder | binding [1] | binding [2] | binding [3]
B1 | binds | binds | 
B2 |  |  | binds

Source: paper PMC11736008
